# Results from PubChem BioAssay AID1487 (National Center for Advancing Translational Sciences (NCATS), 2009).
# In all, about 200,000 compounds went through this assay and about 25 (0.01%) were called active. The shares of active, inactive and inconclusive entries below differ from those in the screen. The call rests on the fitted dose curve; in most records, active means well fitted inhibition curve with a large enough effect in the signal ratio, with a control signal flat (not every such curve was filed as active); inconclusive means small, poorly fitted or top-dose-only effect, or effect the other way, or a change in a side signal; inactive means flat fitted curve, though single readings scatter; the % refers to the signal ratio. Potencies beside an inconclusive call are fits to weak or partial responses and may not hold up.
# Assay: qHTS Assay for Modulators of Lamin A Splicing
# Conditions: HeLa LMNA splicing GFP/RFP minigene ratio, 48 h; ratio change, negative = inhibition: at 46.1 µM (top of the series) unless noted
# Outline: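 Read-out is the ratio of GFP to DsRed2 object intensity, acquired by 488 nm laser-scanning cytometry on HeLa lamin A-EGFP minigene reporter cells. Compound incubation 48 hrs at 37 °C in Opti-MEM with 2% FBS; DMSO 0.5% final.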
# On the % scale 0 is the no-effect control and ±100 the full control effect; potency means the concentration at half of the fitted maximal effect.
SMILES,"ratio change, negative = inhibition",Potency
CCOC(=O)N1CCC2(CC1)C(C#N)=C(N)Oc1c2c(C)nn1-c1cccc(Cl)c1,inactive: -16.9%,
Cc1ccc(C)c(NCCC#N)c1,inactive: 3.34%,
CSc1ccc(C(=O)C2CCCN(S(=O)(=O)N(C)C)C2)cc1 (stereo not given),inconclusive: -17.2% [at 46 µM],
COC(=O)[C@@H]1CC[C@H](C)[C@@H](c2ccc(C)cc2)N1C(=O)c1ccc(/C=N/O[C@@H](C)CN2CCCCc3nc(C)c(C)cc32)cc1,inconclusive: -42.4%,
Cc1cc2nnc(SCC(=O)OC(C)C)n2c2ccccc12,inactive: 7.02%,
CNS(=O)(=O)c1ccc(N=Cc2c(C)[nH]n(-c3ccc(C)cc3C)c2=O)cc1,inconclusive: -12.1% [at 46 µM],
CCOc1ccc(N(C)C(=O)C2CCN(S(=O)(=O)c3c(C)noc3/C=C/c3ccc(C)cc3)CC2)cc1,inactive: 5.7% [at 46 µM],
Cc1cc(/C=N/NC(=O)c2cccs2)c(C)n1-c1ccccc1,,"inconclusive: 7.08 µM [falling, partial curve]"
COC(=O)C(C(=O)OC)[C@@H]1c2ccccc2[C@H]2C(=C[C@@H](C)[C@H]3C(=O)N(c4ccccc4)C(=O)[C@H]32)N1C(=O)OC,inconclusive: -14.4% [at 9.22 µM],
C=CCN(CC(=O)O)S(=O)(=O)c1ccccc1C(F)(F)F,inconclusive: -0.917% [at 46 µM],
CC(C)(C)NC(=S)NC(=O)C12CCC3CC(CC(C3)C1)C2,inconclusive: -12% [at 46 µM],
CSc1nc(SCCO)c2sc3nc(-c4ccco4)c4c(c3c2n1)CC(C)(C)OC4,inconclusive: 10.6%,
COC(=O)c1ccc(CSc2nc3sc(C(=O)O)c(C)c3c(=O)[nH]2)cc1,inconclusive: 10.7% [at 46 µM],
Cc1ccc(S/C=C\C(=O)c2ccccc2)cc1,,"inconclusive: 35.5 µM [cytotoxic, single point]"
COCCNCC#CCOc1ccc(OC)cc1,inactive: 3%,
CCC1OC2(C)OC(=N)C1(C#N)C(C#N)(C#N)C2c1ccccc1 (stereo not given),inactive: -7.33%,
CCOC(=O)c1cccc(NC(=O)CN(c2ccc(C)cc2)S(=O)(=O)c2c(C)noc2C)c1,inconclusive: -11.6%,
O=C(NCCN1CCCCC1)c1ccco1,inactive: -2.39%,
O=Cc1ccc(Oc2ccc(F)cc2)nc1,inactive: 9.93% [at 9.22 µM],
CCOc1ccc(S(=O)(=O)N2CCC(c3ccncc3)CC2)cc1,inconclusive: -9.16% [at 46 µM],
Cc1cc(C)n(-c2nc(C)c(C)c(=O)n2CC(=O)Nc2cccc([N+](=O)[O-])c2)n1,inconclusive: 23.8% [at 46 µM],
CC1(C)CC(=O)C2=C(C1)c1c(ccc3ncccc13)NC2c1cccs1 (stereo not given),inconclusive: 4.28%,
COc1ccc(S(=O)(=O)NCC(c2ccc(N(C)C)cc2)N2CCc3ccccc32)cc1F (stereo not given),inconclusive: -8.02% [at 46 µM],
COc1ccc(-c2ccc(CCC(=O)O)n2NC(=O)c2ccc(C(C)(C)C)cc2)cc1,,"inconclusive: 0.0224 µM [activator, full curve, poor fit]"
c1ccc(-c2cc3c(NCC4COc5ccccc5O4)ncnc3s2)cc1 (stereo not given),,"inconclusive: 11.2 µM [fluorescent, partial curve]"

# Some of the entries so far, bar-delimited:
SMILES | ratio change, negative = inhibition | Potency
Cc1ccc(C)c(NCCC#N)c1 | inactive: 3.34% | 
CCOc1ccc(N(C)C(=O)C2CCN(S(=O)(=O)c3c(C)noc3/C=C/c3ccc(C)cc3)CC2)cc1 | inactive: 5.7% [at 46 µM] | 
CC(C)(C)NC(=S)NC(=O)C12CCC3CC(CC(C3)C1)C2 | inconclusive: -12% [at 46 µM] | 
CCOc1ccc(S(=O)(=O)N2CCC(c3ccncc3)CC2)cc1 | inconclusive: -9.16% [at 46 µM] | 

# Following part

SMILES,"ratio change, negative = inhibition",Potency
CCCS(=O)(=O)c1c(S(=O)(=O)CCC)c2ccc(C(C)=O)cn2c1C(=O)OC,inconclusive: 14.1% [at 46 µM],
Cc1ccc(C(=O)C2Oc3ccccc3C3CC(c4ccc(C)cc4)=NN23)cc1 (stereo not given),,"inconclusive: 14.1 µM [falling, partial curve]"
COC(=O)c1sccc1S(=O)(=O)N(CC(=O)Nc1ccccc1)c1ccccc1,inactive: -3.84% [at 46 µM],
Clc1cc2c(c(CSc3nc4ccccc4n4cccc34)c1)OCOC2,inactive: 10.9% [at 46 µM],
CCCN(C(=O)Nc1cn(CC(C)C)c(=O)c2ccccc12)c1ccc(F)cc1,inconclusive: -11.6% [at 46 µM],
Cc1ccc(Cn2nnc3c(=O)[nH]c(C4CCN(C(=O)Cc5cccs5)CC4)nc32)cc1,inactive: 14.6%,
Cc1ccc(CCNC(=O)C23CN(Cc4ccccc4)CC2C(c2ccc([N+](=O)[O-])cc2)=NO3)cc1 (stereo not given),inconclusive: -33.4%,
COc1ccccc1NC(=O)Cn1c(=O)n(-c2ccccc2)c(=O)c2oc3ccccc3c21,inconclusive: -8.47%,
S=c1[nH]c2ccc3ccccc3c2[nH]1,inconclusive: -8.39% [at 46 µM],
CC(C)C(=O)OCc1cc(=O)n2nc(C3CC3)sc2n1,inconclusive: -0.797% [at 46 µM],
N#CCSc1nc2ccccc2c2nc3ccccc3n12,inconclusive: -2.76%,
COc1cc(/C=C(\C#N)c2nc3ccccc3[nH]2)cc(Br)c1OCc1ccccc1,inconclusive: -18%,
COc1ccc(C(=O)Sc2nncc3ccccc23)cc1,inconclusive: -26.1% [at 46 µM],
COc1ccc(C)cc1NC(=O)CCN1CC(C)OC(C)C1 (stereo not given),inconclusive: -4.06% [at 46 µM],
O=C(Nc1ccc(N2CCOCC2)cc1)c1ccc2c(c1)OCO2,inconclusive: 1.86% [at 46 µM],
CCn1ncc(CNC(=O)c2cccc([N+](=O)[O-])c2)c1C,inactive: -16.6%,
CC(/C=C1\SC(=S)N(NC(=O)c2ccc(O)cc2)C1=O)=C\c1ccccc1,inconclusive: -28.8%,
Cn1c([N+](=O)[O-])cnc1COC(N)=O,inconclusive: -1.16%,
Cn1cc(/C=N\NC(=O)c2cccs2)c2ccccc21,inconclusive: -30.8% [at 46 µM],
O=C(CCS(=O)(=O)c1ccccc1)Nc1nc(-c2cccs2)cs1,inconclusive: -22.4%,
CCCCc1nc2c(c3c1C[C@H](C)OC3)CN(C(=O)COC)CC2,inconclusive: -5.43% [at 9.22 µM],
Cc1cc(F)ccc1NC(=O)CCn1nc(C)c(S(=O)(=O)N2CCCCC2)c1C,inconclusive: -5.37% [at 46 µM],
CC1=C(C(=O)O)N2C(=O)[C@@H](NC(=O)[C@@H](N)c3ccccc3)[C@@H]2SC1,inconclusive: -11.9%,
CCN1CCN(Cc2nc3c(c(=O)n(C)c(=O)n3C)n2CCCc2ccccc2)CC1,inactive: 0.705%,
c1cc(NC2CC2)nc(-c2ccoc2)n1,inactive: -3.17%,
